The target of one test is LRP6-GFP ΔB (UniProt O75581). The experiment in a line: co-IP; wt or mutant LRP6-GFP co-expressed with FLAG-Axin and/or GSK3β-HA in LRP5/6 DKO cells (Fig. 8d, e; cells of Fig. 8f not stated); GFP-trap IP, Western blot. On the technique in general: Immunoblotting shows a protein as a band on a membrane.
Test [1] addresses His6x-AP2μ (YxxΦ-binding domain of rat AP2μ) (rat). Put plainly: crystal structure; AP2μ YxxΦ-binding domain (10 mg/ml) with 3x excess of synthetic peptide; sitting drop, 18 °C; both purified.

By UniProt entry, the sequences of proteins in these tests, tags left out. Where a name states a change or a piece, a line headed by the entry shows the natural chain unless it says otherwise.
UniProt O75581: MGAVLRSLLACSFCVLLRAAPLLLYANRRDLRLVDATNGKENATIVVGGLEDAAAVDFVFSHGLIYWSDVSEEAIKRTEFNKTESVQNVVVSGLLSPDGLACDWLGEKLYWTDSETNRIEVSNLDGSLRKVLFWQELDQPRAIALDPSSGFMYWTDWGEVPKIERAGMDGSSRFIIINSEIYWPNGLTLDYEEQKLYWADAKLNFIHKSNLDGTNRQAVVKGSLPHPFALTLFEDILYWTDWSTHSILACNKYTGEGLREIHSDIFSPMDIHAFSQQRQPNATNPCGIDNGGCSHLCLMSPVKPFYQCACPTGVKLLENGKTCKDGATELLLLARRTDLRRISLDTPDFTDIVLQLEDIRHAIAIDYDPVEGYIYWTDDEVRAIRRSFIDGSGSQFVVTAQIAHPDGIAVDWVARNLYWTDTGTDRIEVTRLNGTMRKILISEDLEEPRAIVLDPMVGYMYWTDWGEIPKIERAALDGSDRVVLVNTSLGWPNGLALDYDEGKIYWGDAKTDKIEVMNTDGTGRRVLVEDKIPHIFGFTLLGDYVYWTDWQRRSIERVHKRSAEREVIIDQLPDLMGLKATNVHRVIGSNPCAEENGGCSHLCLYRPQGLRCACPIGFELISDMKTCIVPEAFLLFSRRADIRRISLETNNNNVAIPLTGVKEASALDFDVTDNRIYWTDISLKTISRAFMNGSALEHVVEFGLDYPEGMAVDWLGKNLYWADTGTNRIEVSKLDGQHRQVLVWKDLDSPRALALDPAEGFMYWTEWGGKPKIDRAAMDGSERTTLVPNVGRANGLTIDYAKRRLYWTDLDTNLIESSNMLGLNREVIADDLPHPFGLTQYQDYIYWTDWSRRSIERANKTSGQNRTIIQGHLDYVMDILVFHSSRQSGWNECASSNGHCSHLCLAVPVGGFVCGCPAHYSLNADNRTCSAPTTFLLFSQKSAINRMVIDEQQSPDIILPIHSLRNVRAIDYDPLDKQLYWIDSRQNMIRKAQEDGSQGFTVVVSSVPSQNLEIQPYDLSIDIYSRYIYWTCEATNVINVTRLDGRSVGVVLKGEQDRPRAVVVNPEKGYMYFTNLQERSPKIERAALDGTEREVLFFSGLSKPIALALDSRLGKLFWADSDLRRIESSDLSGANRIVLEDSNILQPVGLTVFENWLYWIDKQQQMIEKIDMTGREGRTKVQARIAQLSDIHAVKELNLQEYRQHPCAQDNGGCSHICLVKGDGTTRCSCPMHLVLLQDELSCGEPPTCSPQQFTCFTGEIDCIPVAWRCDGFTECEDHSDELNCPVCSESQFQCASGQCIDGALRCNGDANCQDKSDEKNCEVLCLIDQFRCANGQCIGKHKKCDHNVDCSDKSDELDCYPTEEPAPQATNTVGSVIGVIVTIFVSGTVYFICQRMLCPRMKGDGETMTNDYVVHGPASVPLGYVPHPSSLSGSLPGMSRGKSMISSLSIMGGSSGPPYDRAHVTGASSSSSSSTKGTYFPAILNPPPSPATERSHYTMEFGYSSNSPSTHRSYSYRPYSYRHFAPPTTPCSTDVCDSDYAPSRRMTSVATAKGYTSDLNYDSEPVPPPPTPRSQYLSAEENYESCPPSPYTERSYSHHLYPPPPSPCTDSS
UniProt O15169: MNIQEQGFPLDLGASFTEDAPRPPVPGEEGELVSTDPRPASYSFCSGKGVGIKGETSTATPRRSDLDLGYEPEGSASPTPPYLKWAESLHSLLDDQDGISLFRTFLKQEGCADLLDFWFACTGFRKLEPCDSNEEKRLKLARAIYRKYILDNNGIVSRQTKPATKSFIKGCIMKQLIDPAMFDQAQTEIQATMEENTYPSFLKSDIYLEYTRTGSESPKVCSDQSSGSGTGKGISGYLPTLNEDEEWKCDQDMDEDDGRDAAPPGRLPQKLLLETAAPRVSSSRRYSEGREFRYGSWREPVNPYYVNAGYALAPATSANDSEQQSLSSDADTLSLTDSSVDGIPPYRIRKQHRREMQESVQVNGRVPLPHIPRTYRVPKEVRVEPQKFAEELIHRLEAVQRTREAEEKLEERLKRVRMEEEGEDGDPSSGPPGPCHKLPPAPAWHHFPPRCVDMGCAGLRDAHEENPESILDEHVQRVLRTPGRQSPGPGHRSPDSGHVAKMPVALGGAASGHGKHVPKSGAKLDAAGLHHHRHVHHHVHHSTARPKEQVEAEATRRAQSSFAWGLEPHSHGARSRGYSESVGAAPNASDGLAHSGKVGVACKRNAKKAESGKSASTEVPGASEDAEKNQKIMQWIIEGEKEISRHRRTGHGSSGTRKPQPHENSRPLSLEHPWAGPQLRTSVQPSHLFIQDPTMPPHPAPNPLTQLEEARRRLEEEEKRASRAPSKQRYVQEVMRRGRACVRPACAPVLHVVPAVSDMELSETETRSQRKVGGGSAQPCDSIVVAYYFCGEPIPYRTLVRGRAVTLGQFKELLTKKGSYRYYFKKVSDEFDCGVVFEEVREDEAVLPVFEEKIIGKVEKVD

Results are given in words; binding and its absence hold for the method and conditions named. Binding calls can cover weak binding; strength is not graded here. For part of these data: In cells and extracts the contact can be indirect.

Binding data for 3 molecules are collected here from publication PMC12095580, “Wnt signalosome assembly is governed by conformational flexibility of Axin and by the AP2 clathrin adaptor” (Nature Communications, 2025).

With FLAG-Axin1 (from UniProt O15169 1-862), in the test with LRP6-GFP ΔB, the binding entry is on record as “binds”.

On to SYRHFA [SYRHFA peptide (synthetic, co-crystallized)], for which the binding entry in test [1] is “binds”.

As for SYRPYS [SYRPYS peptide (synthetic, co-crystallized)], the binding result in test [1] is on record as “binds”.
